The supplement of paper PMC8728848
The other results are listed elsewhere or left out.

Legend:
Assay in all cases: glycan array binding signal (z-score within array); higher = stronger binding
Details in all cases: glycan notation: IUPAC condensed, linker removed
Fuc(a1-2)Gal = target: Fuc(a1-2)Gal
Summary of the method: (§1)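 The Consortium for Functional Glycomics database supplied 3228 glycan arrays, of which those lacking an available protein sequence were dropped. The binding signal, a within-array Z-score, was averaged across arrays of the same protein sequence and across linkers. Negative scores can be read as non-binding.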

Fuc(a1-2)Gal(b1-3)GalNAc = target: Fuc(a1-2)Gal(b1-3)GalNAc
Summary of the method: as §1

[1] = target: Fuc(a1-2)Gal(b1-3)GalNAc(a1-3)[Fuc(a1-2)]Gal(b1-4)Glc
Summary of the method: as §1

[2] = target: Fuc(a1-2)Gal(b1-3)GalNAc(a1-3)[Fuc(a1-2)]Gal(b1-4)GlcNAc
Summary of the method: as §1

[3] = target: Fuc(a1-2)Gal(b1-3)GalNAc(b1-3)Gal
Summary of the method: as §1

[4] = target: Fuc(a1-2)Gal(b1-3)GalNAc(b1-3)Gal(a1-4)Gal(b1-4)Glc
Summary of the method: as §1

[5] = target: Fuc(a1-2)Gal(b1-3)GalNAc(b1-4)[Neu5Ac(a2-3)]Gal(b1-4)Glc
Summary of the method: as §1

Fuc(a1-2)Gal(b1-3)GlcNAc = target: Fuc(a1-2)Gal(b1-3)GlcNAc
Summary of the method: as §1

[6] = target: Fuc(a1-2)Gal(b1-3)GlcNAc(b1-2)Man(a1-3)[Fuc(a1-2)Gal(b1-3)GlcNAc(b1-2)Man(a1-6)]Man(b1-4)GlcNAc(b1-4)GlcNAc
Summary of the method: as §1

[7] = target: Fuc(a1-2)Gal(b1-3)GlcNAc(b1-2)Man(a1-3)[Fuc(a1-2)Gal(b1-3)GlcNAc(b1-2)Man(a1-6)]Man(b1-4)GlcNAc(b1-4)[Fuc(a1-6)]GlcNAc
Summary of the method: as §1

[8] = target: Fuc(a1-2)Gal(b1-3)GlcNAc(b1-3)Gal(b1-4)Glc
Summary of the method: as §1

[9] = target: Fuc(a1-2)Gal(b1-3)GlcNAc(b1-3)GalNAc
Summary of the method: as §1

[10] = target: Fuc(a1-2)Gal(b1-3)GlcNAc(b1-3)[Fuc(a1-2)Gal(b1-3)GlcNAc(b1-6)]GalNAc
Summary of the method: as §1

[11] = target: Fuc(a1-2)Gal(b1-3)GlcNAc(b1-3)[Gal(b1-4)GlcNAc(b1-6)]Gal(b1-4)Glc
Summary of the method: as §1

[12] = target: Fuc(a1-2)Gal(b1-3)GlcNAc(b1-3)[Neu5Ac(a2-6)Gal(b1-4)GlcNAc(b1-6)]Gal(b1-4)Glc
Summary of the method: as §1

[13] = target: Fuc(a1-2)Gal(b1-3)GlcNAc6S
Summary of the method: as §1

[14] = target: Fuc(a1-2)Gal(b1-3)[Fuc(a1-4)]GlcNAc
Summary of the method: as §1

[15] = target: Fuc(a1-2)Gal(b1-3)[Fuc(a1-4)]GlcNAc(b1-2)Man(a1-3)[Fuc(a1-2)Gal(b1-3)[Fuc(a1-4)]GlcNAc(b1-2)Man(a1-3)]Man(b1-4)GlcNAc(b1-4)GlcNAc
Summary of the method: as §1

[16] = target: Fuc(a1-2)Gal(b1-3)[Fuc(a1-4)]GlcNAc(b1-2)Man(a1-3)[Fuc(a1-2)Gal(b1-3)[Fuc(a1-4)]GlcNAc(b1-2)Man(a1-6)]Man(b1-4)GlcNAc(b1-4)[Fuc(a1-6)]GlcNAc(b1-4)[Fuc(a1-6)]GlcNAc
Summary of the method: as §1

[17] = target: Fuc(a1-2)Gal(b1-3)[Fuc(a1-4)]GlcNAc(b1-3)[Fuc(a1-3)[Gal(b1-4)]GlcNAc(b1-6)]Gal(b1-4)Glc
Summary of the method: as §1

[18] = target: Fuc(a1-2)Gal(b1-3)[Fuc(a1-4)]GlcNAc(b1-3)[Gal(b1-4)GlcNAc(b1-6)]Gal(b1-4)Glc
Summary of the method: as §1

Fuc(a1-2)Gal(b1-4)Glc = target: Fuc(a1-2)Gal(b1-4)Glc
Summary of the method: as §1

Fuc(a1-2)Gal(b1-4)Glc6S = target: Fuc(a1-2)Gal(b1-4)Glc6S
Summary of the method: as §1

Fuc(a1-2)Gal(b1-4)GlcNAc = target: Fuc(a1-2)Gal(b1-4)GlcNAc
Summary of the method: as §1

[19] = target: Fuc(a1-2)Gal(b1-4)GlcNAc(b1-2)Man
Summary of the method: as §1

[20] = target: Fuc(a1-2)Gal(b1-4)GlcNAc(b1-2)Man(a1-3)[Fuc(a1-2)Gal(b1-4)GlcNAc(b1-2)Man(a1-6)]Man(b1-4)GlcNAc(b1-4)GlcNAc
Summary of the method: as §1

[21] = target: Fuc(a1-2)Gal(b1-4)GlcNAc(b1-2)Man(a1-3)[Fuc(a1-2)Gal(b1-4)GlcNAc(b1-2)Man(a1-6)]Man(b1-4)GlcNAc(b1-4)[Fuc(a1-6)]GlcNAc
Summary of the method: as §1

[22] = target: Fuc(a1-2)Gal(b1-4)GlcNAc(b1-2)[Fuc(a1-2)Gal(b1-4)GlcNAc(b1-4)]Man(a1-3)[Fuc(a1-2)Gal(b1-4)GlcNAc(b1-2)Man(a1-6)]Man(b1-4)GlcNAc(b1-4)GlcNAc
Summary of the method: as §1

[23] = target: Fuc(a1-2)Gal(b1-4)GlcNAc(b1-3)Gal(b1-4)GlcNAc
Summary of the method: as §1

[24] = target: Fuc(a1-2)Gal(b1-4)GlcNAc(b1-3)Gal(b1-4)GlcNAc(b1-2)Man(a1-3)[Fuc(a1-2)Gal(b1-4)GlcNAc(b1-3)Gal(b1-4)GlcNAc(b1-2)Man(a1-6)]Man(b1-4)GlcNAc(b1-4)GlcNAc
Summary of the method: as §1

B1: PX14343I-pdi-501-30-501 (Parabacteroides distasonis) (protein)
chain: SDQYSTETFWKTKEHASAGIMGCYNALKLWRSLHTMEFDMLTANAMPYNEANGTQAIGKGEHLSTTALIGSLWKNCYVGIGRTNTFIANVGGVDMDESEKAKMVGEAKFLRAFYYLSLVDKFGGVPLIIDAPNADEQAELPRNSKEEVVNQIVKDLEEAAAVLPDTYASSDLGRATKGAALALKARTLLYNSRWAEAAQAAKQVMESGVYQLFNDYRHFFSEDNKYNCEVIFDIEAKLPEYPTDYDQNIWRLNRPAPLKELVDTYLCVDGKTIEESPLYDPTRPYENRDPRLLKSIVCIGYPYLGKTITKEDVATTGFGVKKYTSYEDDVTIPLVERSAFNFILIRYAEVLLTYAEAQNEASGPDQSVYDAINQLRRRPDINMPEVPKGLTKDQMREVIRRERRIELTFEGLYYSDILRWKTAEKENNGMMHNYEGIEVVKRSFNPKRDYLWPIPYNQTVLNPNLEQNPNWD
With B1 the “glycan array binding signal (z-score)” value (Fuc(a1-2)Gal) was -0.249, the “glycan array binding signal (z-score)” value (Fuc(a1-2)Gal(b1-3)GalNAc) was -0.188 and the “glycan array binding signal (z-score)” value [1] was -0.132. The “glycan array binding signal (z-score)” value [2] was 0.236, the “glycan array binding signal (z-score)” value [3] was -0.11 and the “glycan array binding signal (z-score)” value [4] was -0.216. For the same binder, the “glycan array binding signal (z-score)” value [5] was 0.508, the “glycan array binding signal (z-score)” value (Fuc(a1-2)Gal(b1-3)GlcNAc) was -0.248 and the “glycan array binding signal (z-score)” value [6] was 1.95. For the same binder, the “glycan array binding signal (z-score)” value [7] was -0.722, the “glycan array binding signal (z-score)” value [8] was 0.051 and the “glycan array binding signal (z-score)” value [9] was -1.16. The “glycan array binding signal (z-score)” value [10] was -0.183, the “glycan array binding signal (z-score)” value [11] was -0.005 and the “glycan array binding signal (z-score)” value [12] was 0.025. For the same binder, the “glycan array binding signal (z-score)” value [13] was 0.8, the “glycan array binding signal (z-score)” value [14] was -0.308 and the “glycan array binding signal (z-score)” value [15] was 0.312. The “glycan array binding signal (z-score)” value [16] was -1.15, the “glycan array binding signal (z-score)” value [17] was -0.886 and the “glycan array binding signal (z-score)” value [18] was -0.601. For the same binder, the “glycan array binding signal (z-score)” value (Fuc(a1-2)Gal(b1-4)Glc) was 0.184, the “glycan array binding signal (z-score)” value (Fuc(a1-2)Gal(b1-4)Glc6S) was 0.395 and the “glycan array binding signal (z-score)” value (Fuc(a1-2)Gal(b1-4)GlcNAc) was -0.723. For the same binder, the “glycan array binding signal (z-score)” value [19] was -0.202, the “glycan array binding signal (z-score)” value [20] was 0.226 and the “glycan array binding signal (z-score)” value [21] was -0.133. The “glycan array binding signal (z-score)” value [22] was 1.69, the “glycan array binding signal (z-score)” value [23] was 0.519 and the “glycan array binding signal (z-score)” value [24] was 0.328.
